Measured values reported in PubChem BioAssay AID624305 (National Center for Advancing Translational Sciences (NCATS), 2012).
Inconclusive results, whose numbers are uncertain, are shown with a selection of clear calls. Potencies beside an inconclusive call are fits to weak or partial responses and may not hold up. Activity calls are given as the source filed them. The call rests on the fitted dose curve; in most records, active means well fitted activation curve with a large enough effect; inconclusive means small, poorly fitted or top-dose-only effect; inactive means no such curve, though single readings can be large or run the other way.
Potency means the concentration at half of the fitted maximal effect.

Assay: qHTS assay for re-activators of p53 using a Luc reporter: Hit Validation; further: nearly all actives have a fitted effect of over 75% in size
Settings: p53-responsive luciferase reporter cells, luminescence, H1299 line expressing heat-sensitive Ala138Val p53; series mostly up to 46.1 µM
Procedure, shortened: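 Hit confirmation with a 1:5 dilution series, at 37 deg C for 24 hrs, in H1299 cells co-expressing temperature-sensitive p53-A138V and p53-responsive luciferase. Nocodazole served as control; luminescence read after 10 min with detection reagent.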
With CCS(=O)(=O)NCCc1csc(-c2ccccc2)n1 the Potency was inconclusive: 16.4 µM [activator, single point]. With O=C(Nc1cccnc1)Nc1ccc(Br)cc1Cl the Potency was inconclusive: 36.6 µM [activator, single point]. With Cc1nn(-c2ccccc2)c(C)c1/C=N/Nc1nc2ccccc2[nH]1 the Potency was active: 0.731 µM. With Cc1ccc(NC(=O)c2cc(C)n(-c3ccccc3)c2C)cc1 the Potency was inconclusive: 0.517 µM [activator, partial curve, poor fit]. For O=C(O)C1CC(=O)N(c2ccc(Br)cc2)C1 (stereo unspecified), the Potency was “inactive”. In the case of COc1cc(C2NC(=S)NC(O)(C(F)(F)F)C2C(=O)c2cccs2)cc(OC)c1O (stereo unspecified), the Potency was inconclusive: 29.1 µM [activator, single point]. For CCN(CC)CCN1C(=O)C(=O)/C(=C(/O)c2cnn(-c3ccccc3)c2C)C1c1ccc(C)o1 (stereo unspecified), the Potency was inconclusive: 29.1 µM [activator, single point]. In the case of O=C(Nc1ccc(OC(F)(F)F)cc1)c1cnc2n(c1=O)CCS2, the Potency was inconclusive: 25.9 µM [activator, single point]. In the case of Cc1cc(C(=O)Cn2nnc3ccccc3c2=O)c(C)n1Cc1cccs1, the Potency was active: 0.259 µM. In the case of COc1ccc(CNC(=O)NC2CCCCC2)cc1, the Potency was inconclusive: 29.1 µM [activator, single point]. In the case of O=C(Nc1cccc(O)c1)C(=O)Nc1ccccn1, the Potency was active: 2.31 µM. For O=C(Nc1ccccc1Br)c1ccc(OC(=S)N2CCOCC2)cc1, the Potency was inconclusive: 2.31 µM [activator, full curve]. With O=C(CCN1C(=O)/C(=C/c2ccccc2Cl)SC1=S)N1CCOCC1 the Potency was inconclusive: 7.31 µM [activator, single point]. With CCCCCNC(=O)N[C@H](C(=O)O)C(C)C the Potency was “inactive”. In the case of COc1ccc(-n2c(C)cc(C(=O)COc3ccc(C)nc3[N+](=O)[O-])c2C)cc1, the Potency was inconclusive: 2.31 µM [activator, partial curve, poor fit]. In the case of Cc1cc(C(=O)CSc2nnc(N)s2)c(C)n1Cc1cccs1, the Potency was inconclusive: 0.517 µM [activator, full curve, poor fit].
